# Reference: PubChem BioAssay AID540256 (National Center for Advancing Translational Sciences (NCATS), 2011)
# Hit rate of the full screen: of about 300,000 compounds, about 3,700 (1.2%) were called active. This list was built around the results that the source calls inconclusive (neither active nor inactive); the mix of calls is not that of the screen. The call rests on the fitted dose curve; tested in HEK293 cells. Potencies beside an inconclusive call are fits to weak or partial responses and may not hold up.
# Assay: qHTS for Inhibitors of binding or entry into cells for Lassa Virus; further: nearly all actives have a fitted effect of over 50% in size
# Conditions: Lassa virus pseudotype entry inhibition, cell reporter; activity change, negative = inhibition: at 37.9 µM (top of the series) unless noted
# On the % scale 0 is the no-effect control and ±100 the full control effect; potency means the concentration at half of the fitted maximal effect.
Structure (SMILES),Potency,"activity change, negative = inhibition"
COc1ccc(C(=O)N2[C@@H](C(C)C)COc3cc(Br)ccc3S2(=O)=O)cc1,"inconclusive: 35.3 µM [inhibitor, single point]",
COc1ccccc1-c1noc(-c2ccc(N3CCC(C)CC3)c([N+](=O)[O-])c2)n1,,inactive: 8.15% [at 46.1 µM]
Cc1ccc(-n2cc(CN3CCN(c4ccccn4)CC3)c(-c3ccc(F)cc3)n2)cc1,"inconclusive: 20 µM [inhibitor, partial curve, poor fit]",
CSc1ncc(C(=O)Nc2ccccc2C(=O)c2ccccc2)c(C(F)(F)F)n1,"inconclusive: 3.98 µM [inhibitor, partial curve, poor fit]",
CCOc1ccc(NC(=O)CN(C)C(=O)c2cc(-c3ccncc3)nc3ccccc23)cc1OCC,,inactive: -4.46% [at 46.1 µM]
Fc1ccc(-n2cc(-c3ccccc3)c3c(NC4CCCCC4)ncnc32)cc1,,inactive: -0.963% [at 46.1 µM]
Nc1nc(Nc2cccc(Cl)c2)nc(NCc2ccco2)c1[N+](=O)[O-],"inconclusive: 35.5 µM [inhibitor, single point]",
Cc1ccc(S(=O)(=O)N2CCCC(C(=O)Nc3ccc(C(=O)O)cc3)C2)cc1Cl (centres undefined),,inactive: 12.4% [at 46.1 µM]
COC(=O)c1c(C)cccc1C1CN=NC12Cc1ccccc1C2=O (centres undefined),,inactive: -1.16% [at 46.1 µM]
C=C(C)Cn1c(=O)c2c(nc3n2CCN3c2ccc(CC)cc2)n(C)c1=O,,inactive: 16.9% [at 46.1 µM]
COCCC(=O)N1CCCC(C(=O)c2ccc(Oc3ccccc3)cc2)C1 (centres undefined),"inconclusive: 3.98 µM [inhibitor, partial curve, poor fit]",
COc1cccc(Nc2ccccc2C(=O)O)c1,"inconclusive: 35.5 µM [activator, single point]",
N#Cc1ccccc1Cn1cc(C(=O)c2ccccc2F)c2ccccc21,"inconclusive: 25.1 µM [inhibitor, single point]",
O=C(CCN1C(=O)/C(=C/c2cccs2)SC1=S)N1CCCCC1,"inconclusive: 35.5 µM [inhibitor, single point]",
NS(=O)(=O)c1ccc(NC(=O)COC(=O)c2ccc(S(=O)(=O)N3CCOCC3)cc2)cc1,,inactive: 9.52% [at 46.1 µM]
Cc1ccccc1OCC(=O)N/N=C/c1cccc2cccnc12,"inconclusive: 35.5 µM [inhibitor, single point]",
Cc1nc(-c2cccc(S(=O)(=O)N3CCCCC3)c2)cs1,,inactive: -26%
COc1ccc(C(=O)NC(=S)Nc2ccc3oc(=O)ccc3c2)cc1,"inconclusive: 3.98 µM [inhibitor, full curve]",
COc1ccccc1NS(=O)(=O)c1cccc(NC(=O)c2sc3ccccc3c2Cl)c1,"inconclusive: 3.16 µM [inhibitor, single point]",
Cc1ccc(CNC(=O)CN2CCC(C(N)=O)CC2)cc1,,inactive: -12%
COc1ccc(S(=O)(=O)Nc2nnc(C(C)(C)C)s2)cc1,"inconclusive: 4.61 µM [inhibitor, partial curve, poor fit]",
COc1cccc(/C=N/NC(=O)c2cc3c(OC)c(OC)ccc3[nH]2)c1OC,"inconclusive: 6.51 µM [inhibitor, full curve]",
COc1ccc(-n2nc(C(=O)NCC(=O)NCCC3=CCCCC3)c3ccccc3c2=O)cc1OC,"inconclusive: 15.8 µM [inhibitor, single point]",

Structure (SMILES),Potency,"activity change, negative = inhibition"
Cc1cc(C)cc(C(=O)NC(=S)Nc2ccc(-c3cc4ccccc4oc3=O)cc2)c1,,inactive: -12.3%
Cc1ccccc1-n1c(-c2ccoc2)nc2ccccc2c1=O,,inactive: -1.45%
CCCc1nc2ccc(NC(C)=O)cc2c(=O)n1Cc1cccc(Cl)c1,,inactive: -22.7% [at 46.1 µM]
Cc1ccc(C)c(OCCC(=O)N2CCN(S(=O)(=O)c3cc(C)ccc3C)CC2)c1,"inconclusive: 14.1 µM [inhibitor, partial curve, poor fit]",
COc1ccccc1OCC(=O)NNC(=O)C(=O)N1CCCC1,,inactive: 15.8%
COc1ccccc1N1CCN(CCN(C(=O)c2ccc(F)cc2)c2ccccn2)CC1,"inconclusive: 4.61 µM [inhibitor, full curve, poor fit]",
c1ccc(-c2ccccn2)nc1,"inconclusive: 6.51 µM [activator, single point]",
CCOC(=O)c1c(OCC)[nH]c2c1cc(O)c1ccccc12,,inactive: -0.444%
CC(C)CCC(C(=O)O)C(C)CC(=O)NC1CCCCC1 (centres undefined),"inconclusive: 0.82 µM [activator, full curve, poor fit]",
COc1ccc(NC(=O)CSc2nc(N)c3cc4c(nc3n2)CC(C)(C)OC4)cc1,"inconclusive: 6.31 µM [inhibitor, partial curve, poor fit]",
Cc1ccc(NC2CCCN(C(=O)C3CCCC3)C2)cc1C (centres undefined),"inconclusive: 1.26 µM [inhibitor, single point]",
CCOC(=O)CC(NC(=O)Cc1ccccc1)c1ccccc1Cl (centres undefined),"inconclusive: 0.316 µM [inhibitor, partial curve, poor fit]",
COc1ccc(N2CCN(S(=O)(=O)c3ccc4c(c3)CC(C)N4C(C)=O)CC2)cc1 (centres undefined),,inactive: -21.4% [at 46.1 µM]
COc1cccc(/C=N/Nc2c(Cl)cncc2Cl)c1O,"inconclusive: 7.08 µM [inhibitor, full curve, poor fit]",
CCn1c2ccccc2c2nnc(N3CCN(c4cc(C)ccc4C)CC3)nc21,"inconclusive: 35.5 µM [inhibitor, single point]",
CCCCCCN=C(CC)c1c(O)n(CCCC)c(=O)[nH]c1=O,"inconclusive: 13 µM [inhibitor, partial curve, poor fit]",
Fc1ccc(-c2nc(Nc3cccc(Cl)c3)nc3c2COc2ccccc2-3)cc1,,inactive: -1.69% [at 46.1 µM]
COc1ccc(NC(=O)CN(Cc2ccccc2)S(=O)(=O)c2ccc(C)cc2)cc1Cl,"inconclusive: 35.5 µM [inhibitor, single point]",
CCC(=O)Nc1ccc2oc(-c3cccc(C)c3)nc2c1,"inconclusive: 6.31 µM [inhibitor, partial curve, poor fit]",
c1ccc2c(N3CCNCC3)cccc2c1,,inactive: -9.28%
CC(C)Cn1cnc2c(=O)oc3ccccc3c21,"inconclusive: 10 µM [activator, partial curve]",
CS(=O)(=O)N1CCCCC1CCN1CCCCC1 (centres undefined),"inconclusive: 4.47 µM [inhibitor, partial curve, poor fit]",
COC(=O)c1ccc(NC(=O)CSc2ccccc2)cc1,,inactive: 4.42%

# Molecules above containing a thiophene ring, fused or not (2):
Structure (SMILES),Potency,"activity change, negative = inhibition"
O=C(CCN1C(=O)/C(=C/c2cccs2)SC1=S)N1CCCCC1,"inconclusive: 35.5 µM [inhibitor, single point]",
COc1ccccc1NS(=O)(=O)c1cccc(NC(=O)c2sc3ccccc3c2Cl)c1,"inconclusive: 3.16 µM [inhibitor, single point]",

# Later entries:

Structure (SMILES),Potency,"activity change, negative = inhibition"
Cc1nc2ccccn2c1-c1csc(Nc2cccc(C(=O)O)c2)n1,,inactive: 6.33% [at 46.1 µM]
COC(=O)c1ccc(COc2ccc3c(c2)CCC3)o1,"inconclusive: 5.62 µM [activator, single point]",
CC(Nc1ncnc2ccccc12)c1ccccc1 (centres undefined),"inconclusive: 3.16 µM [inhibitor, single point]",
COc1cccc(-n2c(=O)c3c(C)c(C(=O)N(C)C)sc3n(Cc3ccc(F)cc3Cl)c2=O)c1,,inactive: -18.1% [at 46.1 µM]
Cc1ccc(-n2ncc3c(NCCCN4CCOCC4)ncnc32)cc1,"inconclusive: 12.6 µM [activator, partial curve, poor fit]",
CCC1CCCCN1C(=O)c1ccc2c(c1)N(Cc1cccc(Cl)c1)C(=O)c1ccccc1S2(=O)=O (centres undefined),"inconclusive: 22.4 µM [inhibitor, single point]",
CC(C)C[C@H](NC(=O)C1OC1C(=O)O)C(=O)NCCCCN=C(N)N (some centres undefined),"inconclusive: 1.46 µM [activator, full curve]",
CC1CC(C)CN(S(=O)(=O)c2ccc(C(=O)Nc3nnc(-c4cccs4)o3)cc2)C1 (centres undefined),"inconclusive: 7.08 µM [inhibitor, full curve, poor fit]",
COc1ccc(NCc2cc3cc4c(cc3n(CC(=O)Nc3ccc(F)cc3F)c2=O)OCO4)cc1,,inactive: 6.53% [at 46.1 µM]
Cn1c(SCC(=O)N/N=C/c2cc([N+](=O)[O-])ccc2O)nnc1-c1ccccc1,"inconclusive: 5.62 µM [inhibitor, single point]",
CCCCCn1c(Sc2nc3ccccc3s2)nc2c1c(=O)[nH]c(=O)n2C,"inconclusive: 23.1 µM [inhibitor, single point]",
CCc1ccccc1NS(=O)(=O)c1ccc(OC)c2ncccc12,"inconclusive: 10 µM [inhibitor, partial curve, poor fit]",
CNS(=O)(=O)c1c(C)cc(C)c(N(C)S(=O)(=O)c2ccccc2)c1C,"inconclusive: 3.55 µM [inhibitor, partial curve, poor fit]",
O=C(Nc1ccc2c(c1)OCCO2)c1ccco1,"inconclusive: 29.1 µM [inhibitor, single point]",
C=CCNc1nc(N2CCCCC2)c(C#N)c2c1CN(Cc1ccccc1)CC2,"inconclusive: 15.8 µM [inhibitor, single point]",
Cn1c(=O)n(-c2ccc(F)c(Cl)c2)c(=O)c2sc3ccccc3c21,,inactive: 2.37% [at 46.1 µM]
CC/C(=N\NC(=O)c1ccccc1Cl)c1ccc(Br)s1,"inconclusive: 32.6 µM [inhibitor, single point]",
O=C(c1cc(-c2cccc(Cl)c2)on1)N1CCCC1,"inconclusive: 35.5 µM [inhibitor, single point]",
CCOC(=O)c1[nH]cnc1N=Nc1c(O)ccc2ccccc12,"inconclusive: 35.5 µM [inhibitor, single point]",
CCOC(=O)COc1ccc(-c2nnc(-c3ccccc3)o2)cc1,,inactive: 18.3%
CC(=O)c1cccc(NC(=O)c2cccc(S(=O)(=O)N(C)C)c2)c1,,inactive: -25.7%
COc1ccc(-c2cc(C)no2)cc1S(=O)(=O)N1CCN(c2cccc(C)c2)C(C)C1 (centres undefined),"inconclusive: 7.08 µM [inhibitor, partial curve, poor fit]",
O=C(Nc1ccccc1)c1cnc(N2CCCCC2)c2ccccc12,"inconclusive: 14.1 µM [inhibitor, single point]",

# 2 records drawn at random from the list so far, as already listed:
Structure (SMILES),Potency,"activity change, negative = inhibition"
O=C(CCN1C(=O)/C(=C/c2cccs2)SC1=S)N1CCCCC1,"inconclusive: 35.5 µM [inhibitor, single point]",
CCCc1nc2ccc(NC(C)=O)cc2c(=O)n1Cc1cccc(Cl)c1,,inactive: -22.7% [at 46.1 µM]
